For some of these results: At least one peptide structure holds a part that was inferred or is arguable (an end, a ring closure or a residue). Some of these results come from one statement about several compounds together. Non-standard residues stand in square brackets, D forms with d. Residues, ends and D or L forms follow the SMILES beside them. No end group written: not given here.
Legend:
[1] = test system: SDF-1α induced THP-1 migration; experiment: THP-1 trans-well migration assay, SDF-1α as chemoattractant; type: cell-based, human; conditions: ns = not significantly different from control
Procedure: (§1) To determine whether an agent inhibits a chemokine-induced activity, such as macrophage recruitment, varying amounts of the agent are mixed with cells in the presence of a known chemoattractant. For example, a range of known concentrations of an agent, e.g., a chemokine peptide, is incubated with a defined number (e.g., 10^4-10^6) of human THP-1 monocyte cells in individual wells of the top compartment of a trans-well plate. Chemokine (such as MCP-1, MIP1α, IL8 or SDF-1α), at a concentration known to cause significant migration of THP-1 cells in the trans-well migration assay, is placed in the lower compartment (FIG. 1). Cells are then incubated at 37° C. for a period sufficient to allow migration, e.g., 4 hours. After incubation, the cells are gently removed from the top of the filter with a pipette, 20 μl of 20 mM EDTA in simple PBS is added into each top well, and incubated for 20 minutes at 4° C. The filter is carefully flushed with media using a gentle flow, and removed. A standard curve consisting of a two-fold dilution series of THP-1 cells (in 29 μl) is prepared to accurately quantify the number of cells that have migrated. Migrated cells are stained with 3 μl of MTT stock dye solution which is added directly into each well (5 mg/ml in RPMI-1640 without phenol red, Sigma Chemical Co.) and incubated at 37° C. for 4 hours. […] Absorbance of converted dye is measured at a wavelength of 595 nm using an ELISA plate reader. The number of migrated cells in each well is then determined by interpolation of the standard curve (see also Imai et al., J. Biol. Chem., 272, 15036 (1997)). […]
(§2) After incubation, the cells were gently removed from the top of the filter with a pipette, 20 μl of 20 mM EDTA in PBS was added into each top well, and the mixture was incubated for 20 minutes at 4° C. […] A standard curve was prepared to accurately quantify the number of THP-1 cells that had migrated. […] Absorbance of converted dye was measured at a wavelength of 595 nm using an ELISA plate reader. The number of cells that had migrated in each well was determined by interpolation of the standard curve.

[2] = test system: MCP-1 induced THP-1 migration; experiment: THP-1 trans-well migration assay, MCP-1 as chemoattractant; type: cell-based, human; conditions: ns = not significantly different from control
Procedure: as §1, §2

[3] = test system: MIP1α induced THP-1 migration; experiment: THP-1 trans-well migration assay, MIP1α as chemoattractant; type: cell-based, human; conditions: ns = not significantly different from control
Procedure: as §1, §2

[4] = test system: HIV; type: cell-based; conditions: ns = not significantly different from control
[5] = test system: chemokine receptors on THP-1 cells; experiment: Binding to chemokine receptors on THP-1 cells; design: species or system human
Procedure: In general, specific binding is calculated as the amount of labeled agent bound in the absence of cold competitor minus the amount of labeled agent bound in the presence of cold competitor. The amount of specific binding in the presence of varied amounts of cold competitor can be used to determine the association constant for the agent, as well as the number of binding sites on the cell for the agent, using, for example, Scatchard Analysis. The agent may be labeled by radiolabeling (e.g., iodination) or with a suitable biochemical tag (e.g., biotin) or by addition of a photoactivatable crosslinking group. […]
For example, monocytes are suspended in RPMI 1640 medium without bicarbonate containing 0.2% bovine serum albumin and 0.1% azide. […] Filters are washed with 4 ml of cold wash buffer, and the radioactivity bound to the filters is counted in a γ-counter.
For Scatchard analysis, the absorbance readings at 450 nm were calibrated, by reference to a standard curve in which known amounts of labeled peptide were coupled to derivatized sepharose beads (activated thiol-sepharose 4B; Sigma T8512) via the cysteine residue in each peptide. […] The absorbance at 450 nm obtained when a known amount of peptide was coupled to the beads was used to construct a standard curve which was used to convert the absorbance readings obtained with cells into number of molecules of labeled peptide which had bound.

[6] = test system: HIV (IIIb); experiment: HIV infectivity of Jurkat T-cells, p24gag immunofluorescence; type: cell-based; conditions: 100 μM peptide (SDF1α 100 ng/ml), about 48 hours after infection
Procedure: (a) HIV (IIIb) replication in cultures of Jurkat T-cells was estimated by measuring the supernatant reverse transcriptase activity two weeks after infection. Peptide 2 and peptide 3 were at 100 μM final concentration and SDF-1α was added at 100 ng/ml final concentration 1 hour prior to exposure to virus. Values are mean±SEM from 12 wells, expressed as the percentage of the reverse transcriptase activity in the supernatant from the control wells. The experiment shown is typical of six separate experiments. (b) HIV (IIIb) infectivity of Jurkat T-cells was estimated by staining cells treated identically to those in (a) for p24^gag expression. Values are mean±S.D. percentage of cells stained for p24gag averaged from 12 fields of view from each of two separate wells. (c) HIV (MN) infectivity of THP-1 cells measured as in (b). […] Both fields of view contain 40-50 cells (assessed by Hoeschst 33345 staining viewed under UV illumination conditions).
Jurkat cells following HIV infection were attached to 8-well chamber slides (Becton-Dickinson) by spinning the slides using a plate rotor in a Labofuge centrifuge (Haeraeus) at 3,000×g for 5 minutes. […] A threshold was then applied to each image which was the lowest threshold that detected <1% of the pixels of an image of uninfected cells stained under identical conditions. The number of objects exceeding this threshold in each field of view were counted. […]

Molecule	SDF1a ED-50 [1]	MCP-1 ED-50 [2]	MIPIa ED-50 [3]	% virus inhibition [4]	number of binding sites per cell, THP-1 cells [5]	inhibition of viral infectivity, p24gag staining, Jurkat T-cells [6]
CC[C@@H](C)[C@@H](NC(=O)[C@H](NC(=O)[C@@H](CO)NC(=O)[C@@H](CO)NC(=O)[C@@H](CCCCN)NC(=O)[C@@H](CO)NC(=O)[C@H]1CCCN1C(=O)[C@@H](CCCCN)NC(=O)[C@@H](CCC(=O)O)NC(=O)[C@@H](C)NC(=O)[C@H](NC(=O)[C@H](N)CS)C(C)C)[C@H](C)O)C(=O)N[C@H](CCCNC(=N)N)C(=O)N[C@H](CCCNC(=N)N)C(=O)N[C@H](Cc1ccc(O)cc1)C(=O)N[C@H](CO)C(=O)N[C@H](CS)C(=O)O [cvaekpsksstirrysc] (H-[dC][dV][dA][dE][dK][dP][dS][dK][dS][dS][dT][dI][dR][dR][dY][dS][dC]-OH)	ns	ns	ns	ns		
DYFETSSQCSKPGV [Pep2[MIP1a]]	ns	ns	ns		about 150,000 per cell	
CPKEAV [CPKEAV]	ns	ns	ns	ns		
SDF1α: full length chemokine used as a positive control (protein) GKPVSLSYRCPCRFFESHIARANVKHLKILNTPNCALQIVARLKNNNRQVCIDPKLKWIQEYEKALNK						more than 80%

From patent US7989466B2, “Methods to inhibit or augment an inflammatory response” (Cambridge Enterprise Limited, priority 1999, dated 2011)
